Reference: PubChem BioAssay AID504834 (National Center for Advancing Translational Sciences (NCATS), 2011)
Among all 320,000 compounds or so, about 22,000 (6.9%) were called active. This list was built around the results that the source calls inconclusive (neither active nor inactive); the mix of calls is not that of the screen. The call rests on the fitted dose curve; in most records, active means well fitted inhibition curve with a large enough effect; inconclusive means small, poorly fitted or top-dose-only effect, or another doubt; inactive means no such curve, though single readings can be large or run the other way. Potencies beside an inconclusive call are fits to weak or partial responses and may not hold up.

test: Primary qHTS for delayed death inhibitors of the malarial parasite plastid, 96 hour incubation; conditions: P. falciparum luciferase reporter growth; series mostly up to 28.7 µM; activity change, negative = inhibition: at the top concentration
Method in brief: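 Compounds incubated with erythrocytes infected by luciferase-expressing P. falciparum (2% hematocrit, 0.05% parasitemia final) for 96 hours, 37 C in 5% CO2. Growth inhibition scored as decreased luciferase luminescence.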
On the % scale 0 is the no-effect control and ±100 the full control effect; potency means the concentration at half of the fitted maximal effect.

SMILES	Potency	activity change, negative = inhibition
Cc1ccc2nc(-c3ccc(O)cc3)oc2c1	inconclusive: 18.5 µM [inhibitor, single point]	
CCOC(=O)Cc1csc(NC(=O)CSc2nc(=O)[nH]c3c2CCCC3)n1	inconclusive: 18.5 µM [inhibitor, single point]	
O=c1c(-c2ccccc2)c(O)nc2ccccn12	inconclusive: 0.522 µM [inhibitor, full curve]	
CCOc1ccc(-n2c(C)c(C(C)=O)c3cc(OC(C)=O)ccc32)cc1		inactive: 5.61%
Oc1ccc(CNc2ccc(F)cc2)c2cccnc12	inconclusive: 14.7 µM [inhibitor, single point]	
CC(=O)c1cc2c(cc1NC(=O)Cn1cnc3ccccc3c1=O)OCO2	inconclusive: 11.7 µM [inhibitor, single point]	
COc1ccc(C2C(C#N)=C(C)NC3=C2C(=O)CC(C)(C)C3)cc1 (centres undefined)	inconclusive: 10.4 µM [inhibitor, single point]	
Cc1ccccc1N1CC(C(=O)Nc2nnc(SCC(=O)Nc3nccs3)s2)CC1=O (centres undefined)	inconclusive: 7.38 µM [inhibitor, partial curve]	
Cc1ncc([N+](=O)[O-])n1CCO	inactive	
O=C(O)c1cccc2c3c([nH]c12)CCCC3	inconclusive: 14.7 µM [inhibitor, single point]	
CCC(c1nnnn1CC1CCCO1)N(CCN1CCOCC1)Cc1cc2cc(C)ccc2[nH]c1=O (centres undefined)	inconclusive: 11.7 µM [inhibitor, partial curve, poor fit]	
CC(=O)Nc1ccc(-c2nnn(CC(=O)c3ccc(F)cc3)n2)cc1Cl	active: 13.1 µM	
COc1ccc(/C=N/NC(=O)C(=O)N2CCCC2)cc1	inconclusive: 10.4 µM [inhibitor, partial curve, poor fit]	
O=C(OCc1cccc2ccccc12)c1ccc2c(=O)[nH]c(CN3CCOCC3)nc2c1	inconclusive: 18.5 µM [inhibitor, single point]	
CC1(C)Cc2nc3sc4c(SCC(=O)O)ncnc4c3cc2CO1	inconclusive: 18.5 µM [inhibitor, single point]	
CCOC(=O)N1CCN(CC(=O)N2c3ccccc3Sc3ccccc32)CC1	inconclusive: 10.4 µM [inhibitor, partial curve]	
C=CC[n+]1cccc(-c2cc3ccc(C)cc3[nH]2)c1	active: 5.22 µM	
CC(=O)C1C2c3ccccc3OC1(C)N=c1s/c(=C/c3cn(C)nc3C)c(=O)n12 (centres undefined)	inconclusive: 4.15 µM [inhibitor, single point]	
Cc1cc(C(F)(F)Cl)n2ncc(-c3ccccn3)c2n1		inactive: 5.18%

3 entries out of the list, arranged by SMILES length, smallest number first.
SMILES	Potency	activity change, negative = inhibition
O=c1c(-c2ccccc2)c(O)nc2ccccn12	inconclusive: 0.522 µM [inhibitor, full curve]	
C=CC[n+]1cccc(-c2cc3ccc(C)cc3[nH]2)c1	active: 5.22 µM	
CC(=O)Nc1ccc(-c2nnn(CC(=O)c3ccc(F)cc3)n2)cc1Cl	active: 13.1 µM	
